These are yes or no findings as the source states them, for the method shown. Some binding calls cover weakened binding; strength is not graded here.
Tests used:
Assay in all cases: Ligand Surface Binding Assay
ACVR2B-Halo (human) = ACVR2B-Halo (human) (UniProt Q13705)
ALK1-Halo (human) = ALK1-Halo (human) (UniProt P37023)
ALK2-R206H-Halo (human) = biological target: T1, ALK2-R206H-Halo (human) (UniProt Q04771)
T1 sequence: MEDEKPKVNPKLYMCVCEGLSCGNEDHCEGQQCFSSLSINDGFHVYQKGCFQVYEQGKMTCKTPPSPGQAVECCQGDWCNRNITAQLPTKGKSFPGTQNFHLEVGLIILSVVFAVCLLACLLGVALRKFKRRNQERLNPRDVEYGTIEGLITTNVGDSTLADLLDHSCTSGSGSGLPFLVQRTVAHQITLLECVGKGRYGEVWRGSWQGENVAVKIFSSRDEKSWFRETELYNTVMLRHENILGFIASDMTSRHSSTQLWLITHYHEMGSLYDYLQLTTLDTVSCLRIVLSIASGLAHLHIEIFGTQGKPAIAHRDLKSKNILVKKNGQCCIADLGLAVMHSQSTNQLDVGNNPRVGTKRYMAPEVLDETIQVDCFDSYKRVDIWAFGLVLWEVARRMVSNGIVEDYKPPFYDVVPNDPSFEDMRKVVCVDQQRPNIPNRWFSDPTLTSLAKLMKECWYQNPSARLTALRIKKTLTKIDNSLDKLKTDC

Sequences of proteins named here, by UniProt entry; tags and fusion partners are left off. Residues count along the entry.
UniProt Q13705, residues 19-512: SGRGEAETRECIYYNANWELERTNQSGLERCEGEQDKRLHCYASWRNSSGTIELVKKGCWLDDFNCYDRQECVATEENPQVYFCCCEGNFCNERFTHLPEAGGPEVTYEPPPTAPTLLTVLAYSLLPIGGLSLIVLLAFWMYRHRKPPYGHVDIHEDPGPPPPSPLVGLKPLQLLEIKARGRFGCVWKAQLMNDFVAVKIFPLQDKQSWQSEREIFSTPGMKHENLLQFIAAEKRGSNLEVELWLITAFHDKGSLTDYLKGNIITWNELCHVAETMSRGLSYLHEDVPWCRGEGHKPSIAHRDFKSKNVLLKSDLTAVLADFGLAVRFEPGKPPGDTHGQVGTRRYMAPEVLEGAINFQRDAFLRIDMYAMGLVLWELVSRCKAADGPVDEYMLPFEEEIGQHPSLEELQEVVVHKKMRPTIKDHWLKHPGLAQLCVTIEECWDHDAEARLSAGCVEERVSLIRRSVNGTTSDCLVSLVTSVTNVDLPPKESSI
UniProt P37023, residues 22-503: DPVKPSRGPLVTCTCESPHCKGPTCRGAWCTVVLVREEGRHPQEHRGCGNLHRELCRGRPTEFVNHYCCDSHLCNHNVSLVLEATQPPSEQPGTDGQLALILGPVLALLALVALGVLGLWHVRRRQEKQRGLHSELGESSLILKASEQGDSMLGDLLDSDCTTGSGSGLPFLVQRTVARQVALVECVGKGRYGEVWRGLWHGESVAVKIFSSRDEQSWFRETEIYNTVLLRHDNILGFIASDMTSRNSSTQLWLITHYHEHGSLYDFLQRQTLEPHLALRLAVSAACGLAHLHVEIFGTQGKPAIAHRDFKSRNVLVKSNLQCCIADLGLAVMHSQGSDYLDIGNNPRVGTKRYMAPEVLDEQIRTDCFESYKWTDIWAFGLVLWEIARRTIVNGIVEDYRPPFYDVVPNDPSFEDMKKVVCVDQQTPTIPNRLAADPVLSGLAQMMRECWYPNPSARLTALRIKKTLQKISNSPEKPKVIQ
UniProt P36894, residues 24-532: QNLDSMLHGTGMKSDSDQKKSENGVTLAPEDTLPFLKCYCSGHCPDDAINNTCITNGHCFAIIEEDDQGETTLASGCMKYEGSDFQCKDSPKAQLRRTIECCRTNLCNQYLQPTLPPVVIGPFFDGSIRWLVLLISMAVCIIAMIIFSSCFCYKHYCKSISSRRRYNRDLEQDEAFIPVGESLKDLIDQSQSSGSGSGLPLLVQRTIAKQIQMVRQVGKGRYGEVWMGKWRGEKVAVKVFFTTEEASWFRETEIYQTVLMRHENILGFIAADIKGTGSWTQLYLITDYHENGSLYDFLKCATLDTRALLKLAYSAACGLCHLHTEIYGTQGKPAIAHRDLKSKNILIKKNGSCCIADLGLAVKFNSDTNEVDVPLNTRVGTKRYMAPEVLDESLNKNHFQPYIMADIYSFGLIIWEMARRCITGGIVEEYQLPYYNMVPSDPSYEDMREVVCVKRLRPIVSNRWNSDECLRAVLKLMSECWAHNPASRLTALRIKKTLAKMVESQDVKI
UniProt O00238, residues 14-502: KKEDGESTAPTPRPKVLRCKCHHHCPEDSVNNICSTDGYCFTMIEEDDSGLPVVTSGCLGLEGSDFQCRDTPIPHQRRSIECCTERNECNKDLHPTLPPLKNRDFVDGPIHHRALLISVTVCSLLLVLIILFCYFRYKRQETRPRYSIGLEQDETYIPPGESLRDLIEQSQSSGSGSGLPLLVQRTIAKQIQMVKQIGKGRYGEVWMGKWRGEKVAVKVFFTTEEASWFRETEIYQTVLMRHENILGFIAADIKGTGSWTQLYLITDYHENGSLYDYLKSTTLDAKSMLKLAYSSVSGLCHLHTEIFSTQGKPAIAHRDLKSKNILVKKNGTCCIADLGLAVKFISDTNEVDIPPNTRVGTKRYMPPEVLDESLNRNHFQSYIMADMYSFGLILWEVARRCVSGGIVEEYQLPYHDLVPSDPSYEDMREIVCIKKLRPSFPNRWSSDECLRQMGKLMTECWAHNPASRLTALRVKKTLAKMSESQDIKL

ALK3-Halo (human) = ALK3-Halo (human) (UniProt P36894)
ALK4-Halo (human) = biological target: T2, ALK4-Halo (human) (UniProt P36896)
T2 sequence: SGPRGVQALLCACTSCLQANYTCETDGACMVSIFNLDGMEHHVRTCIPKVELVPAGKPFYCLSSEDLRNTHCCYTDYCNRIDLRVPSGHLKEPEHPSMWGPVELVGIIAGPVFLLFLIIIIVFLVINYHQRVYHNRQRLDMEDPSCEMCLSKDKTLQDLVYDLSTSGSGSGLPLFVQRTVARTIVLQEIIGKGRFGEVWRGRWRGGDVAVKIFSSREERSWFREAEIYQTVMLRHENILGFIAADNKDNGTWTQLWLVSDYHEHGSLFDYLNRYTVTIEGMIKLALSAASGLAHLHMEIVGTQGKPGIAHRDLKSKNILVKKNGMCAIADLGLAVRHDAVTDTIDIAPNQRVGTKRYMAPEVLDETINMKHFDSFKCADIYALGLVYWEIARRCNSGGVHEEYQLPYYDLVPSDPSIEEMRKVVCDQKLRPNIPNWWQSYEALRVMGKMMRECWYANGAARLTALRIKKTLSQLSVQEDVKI

ALK6-Halo (human) = ALK6-Halo (human) (UniProt O00238)
[1] = biological target: T3, ALK7-Halo (rat (printed as rALK7)) (UniProt P70539)
T3 sequence: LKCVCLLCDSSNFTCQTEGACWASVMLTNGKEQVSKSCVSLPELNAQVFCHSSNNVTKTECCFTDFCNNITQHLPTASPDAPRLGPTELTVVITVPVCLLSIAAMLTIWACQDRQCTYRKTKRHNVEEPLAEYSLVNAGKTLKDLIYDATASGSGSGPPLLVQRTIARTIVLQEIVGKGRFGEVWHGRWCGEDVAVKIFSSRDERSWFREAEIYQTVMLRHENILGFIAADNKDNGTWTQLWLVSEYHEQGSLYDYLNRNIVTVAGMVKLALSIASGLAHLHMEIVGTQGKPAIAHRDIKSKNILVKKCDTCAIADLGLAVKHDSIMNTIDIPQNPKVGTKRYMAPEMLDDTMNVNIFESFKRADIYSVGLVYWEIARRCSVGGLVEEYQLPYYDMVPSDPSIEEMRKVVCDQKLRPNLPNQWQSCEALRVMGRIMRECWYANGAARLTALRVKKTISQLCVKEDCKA

- binding (ACVR2B-Halo (human)): no binding (tested: 0.3 nM)
- binding (ALK1-Halo (human)): binds
- binding (ALK2-R206H-Halo (human)): no binding (tested: 0.3 nM)
- binding (ALK3-Halo (human)): no binding (tested: 0.3 nM)
- binding (ALK4-Halo (human)): no binding (tested: 0.3 nM)
- binding (ALK6-Halo (human)): no binding (tested: 0.3 nM)
- binding [1]: no binding (tested: 0.3 nM)
B1: BMP9-SiR-d12 (ligand, UniProt Q9UK05 320-429)
chain: SAGAGSHCQKTSLRVNFEDIGWDSWIIAPKEYEAYECKGGCFFPLADDVTPTKHAIVQTLVHLKFPTKVGKACCVPTKLSPISVLYKDDMGVPTLKYHYEGMSVAECGCR
modifications: SiR-d12 label (NHS-SiR-d12 ester, 5-fold molar excess)
